Changes are numbered by the printed parent chain. No constants are given. Whether binding was seen depends on the method and setting. Binding seen in cells or lysates may run through a third protein. Some results given as binding are weak or reduced against the parent protein; the word gives no strength.
Experiments:
Assay in all cases: co-IP; Rlim +/y or -/y mouse ESCs transfected with the indicated vectors, treated with 10 uM MG132 for 6 hr; RNF12 immunoprecipitation, immunoblot for REX1 and RNF12
[1] = molecular target: T1, human RNF12 Y356C (human) (UniProt Q9NVW2)
T1 sequence: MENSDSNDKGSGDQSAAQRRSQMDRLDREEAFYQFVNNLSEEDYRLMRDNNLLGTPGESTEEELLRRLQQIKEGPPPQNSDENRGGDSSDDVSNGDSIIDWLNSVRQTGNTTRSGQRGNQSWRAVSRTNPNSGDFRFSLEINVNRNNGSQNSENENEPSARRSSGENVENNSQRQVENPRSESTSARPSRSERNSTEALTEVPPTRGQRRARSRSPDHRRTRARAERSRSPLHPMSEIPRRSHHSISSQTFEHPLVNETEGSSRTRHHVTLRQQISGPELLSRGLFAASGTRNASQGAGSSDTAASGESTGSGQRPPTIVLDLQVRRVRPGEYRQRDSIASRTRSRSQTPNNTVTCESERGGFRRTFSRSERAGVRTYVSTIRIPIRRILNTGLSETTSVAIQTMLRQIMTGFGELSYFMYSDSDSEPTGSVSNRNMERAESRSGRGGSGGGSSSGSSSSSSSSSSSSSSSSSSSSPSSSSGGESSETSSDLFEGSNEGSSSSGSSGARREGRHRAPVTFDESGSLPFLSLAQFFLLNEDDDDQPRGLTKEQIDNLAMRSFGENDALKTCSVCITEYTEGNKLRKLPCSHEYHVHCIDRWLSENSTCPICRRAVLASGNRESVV

Amino acid sequences for entries named in this document (tags omitted).
UniProt P22227: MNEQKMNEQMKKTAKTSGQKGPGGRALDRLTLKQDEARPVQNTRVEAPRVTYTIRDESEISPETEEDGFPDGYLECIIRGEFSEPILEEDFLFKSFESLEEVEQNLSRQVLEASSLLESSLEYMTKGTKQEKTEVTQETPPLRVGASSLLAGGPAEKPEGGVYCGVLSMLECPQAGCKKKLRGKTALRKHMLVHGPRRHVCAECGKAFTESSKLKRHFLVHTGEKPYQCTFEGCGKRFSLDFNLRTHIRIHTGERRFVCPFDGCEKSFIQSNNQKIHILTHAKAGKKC

[2] = molecular target: T2, human RNF12 R387C (human) (UniProt Q9NVW2)
T2 sequence: T1 sequence with C356Y, R387C

[3] = molecular target: T3, human RNF12 R599C (human) (UniProt Q9NVW2)
T3 sequence: T1 sequence with C356Y, R599C

[4] = molecular target: T4, human RNF12 P587R (human) (UniProt Q9NVW2)
T4 sequence: T1 sequence with C356Y, P587R

[5] = molecular target: T5, human RNF12, wild type (human) (UniProt Q9NVW2)
T5 sequence: T1 sequence with C356Y

Measured: binding

REX1 transcription factor (from UniProt P22227 1-288)
binds: all assays above

Reference: publication PMC5976579
